In assay [1] the target is WSN NP expressed in HEK293T cells (influenza A virus A/WSN/33 (H1N1)) (UniProt P15682). The experiment in a line: co-IP.
Assay [2] deals with Influenza A virus nucleoprotein (NP), strain A/WSN/33 (H1N1) (influenza A virus A/WSN/33 (H1N1)) (UniProt P15682).
The target is the same in assay [3]. This is another data set of the same source.

Chains of the proteins cited; added tags and fusions are not shown.
UniProt P15682: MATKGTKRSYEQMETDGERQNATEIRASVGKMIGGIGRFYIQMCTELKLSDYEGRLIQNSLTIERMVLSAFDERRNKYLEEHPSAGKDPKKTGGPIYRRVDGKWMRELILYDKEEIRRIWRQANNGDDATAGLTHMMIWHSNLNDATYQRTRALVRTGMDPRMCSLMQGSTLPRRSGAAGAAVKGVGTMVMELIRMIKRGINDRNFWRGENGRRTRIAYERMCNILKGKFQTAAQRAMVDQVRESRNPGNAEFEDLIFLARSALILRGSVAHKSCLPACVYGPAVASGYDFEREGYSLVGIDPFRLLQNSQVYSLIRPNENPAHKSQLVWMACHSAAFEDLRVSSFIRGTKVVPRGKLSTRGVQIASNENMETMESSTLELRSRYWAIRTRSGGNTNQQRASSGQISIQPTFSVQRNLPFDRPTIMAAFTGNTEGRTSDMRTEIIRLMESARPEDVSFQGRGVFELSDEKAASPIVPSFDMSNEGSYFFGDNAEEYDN

Where two headings read alike, the source gives them in different places. No constants are given. Whether binding was seen depends on the method and setting. Binding seen in cells or lysates may run through a third protein. Some entries that bind do so weakly or less than the wild type.

Binding data for three molecules are collected here from PMC13423814.

B1: PSPC1 in HEK293T cells (protein, UniProt Q8WXF1 1-523)
chain: MMLRGNLKQVRIEKNPARLRALESAVGESEPAAAAAMALALAGEPAPPAPAPPEDHPDEEMGFTIDIKSFLKPGEKTYTQRCRLFVGNLPTDITEEDFKRLFERYGEPSEVFINRDRGFGFIRLESRTLAEIAKAELDGTILKSRPLRIRFATHGAALTVKNLSPVVSNELLEQAFSQFGPVEKAVVVVDDRGRATGKGFVEFAAKPPARKALERCGDGAFLLTTTPRPVIVEPMEQFDDEDGLPEKLMQKTQQYHKEREQPPRFAQPGTFEFEYASRWKALDEMEKQQREQVDRNIREAKEKLEAEMEAARHEHQLMLMRQDLMRRQEELRRLEELRNQELQKRKQIQLRHEEEHRRREEEMIRHREQEELRRQQEGFKPNYMENREQEMRMGDMGPRGAINMGDAFSPAPAGNQGPPPMMGMNMNNRATIPGPPMGPGPAMGPEGAANMGTPMMPDNGAVHNDRFPQGPPSQMGSPMGSRTGSETPQAPMSGVGPVSGGPGGFGRGSQGGNFEGPNKRRRY
As for B1, the binding result in assay [1] was “binds”.

B2: hnRNPM (protein, UniProt P52272 1-730)
chain: MAAGVEAAAEVAATEIKMEEESGAPGVPSGNGAPGPKGEGERPAQNEKRKEKNIKRGGNRFEPYANPTKRYRAFITNIPFDVKWQSLKDLVKEKVGEVTYVELLMDAEGKSRGCAVVEFKMEESMKKAAEVLNKHSLSGRPLKVKEDPDGEHARRAMQKVMATTGGMGMGPGGPGMITIPPSILNNPNIPNEIIHALQAGRLGSTVFVANLDYKVGWKKLKEVFSMAGVVVRADILEDKDGKSRGIGTVTFEQSIEAVQAISMFNGQLLFDRPMHVKMDERALPKGDFFPPERPQQLPHGLGGIGMGLGPGGQPIDANHLNKGIGMGNIGPAGMGMEGIGFGINKMGGMEGPFGGGMENMGRFGSGMNMGRINEILSNALKRGEIIAKQGGGGGGGSVPGIERMGPGIDRLGGAGMERMGAGLGHGMDRVGSEIERMGLVMDRMGSVERMGSGIERMGPLGLDHMASSIERMGQTMERIGSGVERMGAGMGFGLERMAAPIDRVGQTIERMGSGVERMGPAIERMGLSMERMVPAGMGAGLERMGPVMDRMATGLERMGANNLERMGLERMGANSLERMGLERMGANSLERMGPAMGPALGAGIERMGLAMGGGGGASFDRAIEMERGNFGGSFAGSFGGAGGHAPGVARKACQIFVRNLPFDFTWKMLKDKFNECGHVLYADIKMENGKSKGCGVVKFESPEVAERACRMMNGMKLSGREIDVRIDRNA
Take B2: the binding entry in assay [2] is recorded as “binds”.

B3: KHSRP (protein, UniProt Q92945 1-711)
chain: MSDYSTGGPPPGPPPPAGGGGGAGGAGGGPPPGPPGAGDRGGGGPGGGGPGGGSAGGPSQPPGGGGPGIRKDAFADAVQRARQIAAKIGGDAATTVNNSTPDFGFGGQKRQLEDGDQPESKKLASQGDSISSQLGPIHPPPRTSMTEEYRVPDGMVGLIIGRGGEQINKIQQDSGCKVQISPDSGGLPERSVSLTGAPESVQKAKMMLDDIVSRGRGGPPGQFHDNANGGQNGTVQEIMIPAGKAGLVIGKGGETIKQLQERAGVKMILIQDGSQNTNVDKPLRIIGDPYKVQQACEMVMDILRERDQGGFGDRNEYGSRIGGGIDVPVPRHSVGVVIGRSGEMIKKIQNDAGVRIQFKQDDGTGPEKIAHIMGPPDRCEHAARIINDLLQSLRSGPPGPPGGPGMPPGGRGRGRGQGNWGPPGGEMTFSIPTHKCGLVIGRGGENVKAINQQTGAFVEISRQLPPNGDPNFKLFIIRGSPQQIDHAKQLIEEKIEGPLCPVGPGPGGPGPAGPMGPFNPGPFNQGPPGAPPHAGGPPPHQYPPQGWGNTYPQWQPPAPHDPSKAAAAAADPNAAWAAYYSHYYQQPPGPVPGPAPAPAAPPAQGEPPQPPPTGQSDYTKAWEEYYKKIGQQPQQPGAPPQQDYTKAWEEYYKKQAQVATGGGPGAPPGSQPDYSAAWAEYYRQQAAYYGQTPGPGGPQPPPTQQGQQQAQ
Consider B3, for which the binding entry in assay [3] was “binds”.
